PubChem BioAssay AID1259405 – NCATS | 2018

Purpose: 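Knock-downs that lift recombinant protein yield in hamster ovary cells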 (primary screen)
System: Chinese hamster CHO-K1 ovary cells with stable secreted eGFP expression
Knock-down reagent: single siRNA against mouse genes, 0.8 pmol siRNA per well (2 µl of 400 nM stock)
Duration: 3 days
Read-out: 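Percent of the per-plate non-targeting control median for intracellular GFP per well by laser scanning cytometry and for cell viability by ATP luminescence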
Scale: GFP, % of control: higher = more GFP per well, higher productivity; viability (ATP), % of control: higher = more viable cells (more ATP)
Active means: 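a knock-down is called active if GFP reaches 120% or more of non-targeting control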
Here is one part, drawn at random, of about 50,000 deposited reagents. In the full data, about 4,000 (8%) were called active. 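Mouse siRNA library applied to hamster cells; one well for each siRNA.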 A number with no mark means an inactive call. Reagents against one gene are numbered here.

no.	Gene	reagent no.	GFP, % of control	viability (ATP), % of control
1	Polr2j	1	102	52.7
2	Polr2j	2	65.5	73.4
3	Mydgf	1	68.9	93.9
4	Mydgf	2	107	69.4
5	Mydgf	3	72.2	61.9
6	Slc16a14	1	87.1	92.5
7	Slc16a14	2	65.6	74.4
8	Slc16a14	3	56.1	63.6
9	Lair1	1	38.2	28.6
10	Lair1	2	30	27.6
11	Lair1	3	36.3	34.7
12	Ccdc69	1	79.7	82.2
13	Ccdc69	2	87.9	80.9
14	Ccdc69	3	80.6	100
15	Riox2	1	77.7	58.7
16	Riox2	2	44.3	50.9
17	Riox2	3	58.2	57.9
18	Dusp13b	1	87	71.6
19	Dusp13b	2	93.2	84.7
20	Dusp13b	3	93.3	57.2
21	Bcam	1	20.2	21.7
22	Bcam	2	78.1	84.9
23	Bcam	3	55.2	84.3
24	Pfdn4	1	53.1	59.3
25	Pfdn4	2	32.4	59.8
26	Pfdn4	3	101	119
27	Tbpl2	1	62.2	68.7
28	Tbpl2	2	88.8	70.2
29	Tbpl2	3	57.3	57.4
30	Zbtb12	1	88.6	69.1
31	Zbtb12	2	61.2	55.9
32	Ptcd2	1	75	84.7
33	Ptcd2	2	94.9	73.6
34	Ptcd2	3	98.8	72
35	Ccnb1	1	110	91.4
36	Ccnb1	2	60	28.9
37	Ccnb1	3	123 (active)	117
38	Bag6	1	116	113
39	Bag6	2	117	89
40	Icmt	1	106	114
41	Icmt	2	131 (active)	98.5
42	Icmt	3	109	108
43	Wnt8a	1	65	69.5
44	Wnt8a	2	72.3	67.9
45	Wnt8a	3	69.6	77.2
46	Ttc23	1	110	108
47	Ttc23	2	94.4	87
48	Ttc23	3	93.6	96.4
49	Asgr1	1	91.1	92.3
50	Asgr1	2	80	74.9
51	Asgr1	3	75.6	79.2
52	Rras2	1	58	73.8
53	Rras2	2	93.7	85.8
54	Rras2	3	75.9	68.6
55	Nmd3	1	89.9	95.6
56	Nmd3	2	91.9	84.4
57	Nmd3	3	81.3	138
58	Iapp	1	33.2	44.3
59	Iapp	2	46.5	60.9
60	Iapp	3	69	51
61	Aipl1	1	81	77.2
62	Aipl1	2	112	61.2
63	Aipl1	3	64.9	79.6
64	Bche	1	101	86.5
65	Bche	2	93.9	82.4
66	Bche	3	57.4	34.5
67	Gon4l	1	98.6	68.2
68	Gon4l	2	85.1	100
69	Gon4l	3	67.1	85.1
70	Kdm6a	1	49.5	54.7
71	Kdm6a	2	85.9	62.1
72	Kdm6a	3	102	98.7
73	Rpl38	1	55.1	38.1
74	Rpl38	2	57.9	34.4
75	Rpl38	3	67.3	50.3
76	Cyp26b1	1	58.5	80.1
77	Cyp26b1	2	92.8	79.2
78	Cyp26b1	3	82.3	86.4
79	Nos3	1	63.4	62.8
80	Nos3	2	105	62.5
81	Ncoa3	1	140 (active)	87.8
82	Ncoa3	2	56.1	65.6
83	Ncoa3	3	111	99.9
84	Pyroxd1	1	43.6	41.4
85	Pyroxd1	2	62.5	85
86	Pyroxd1	3	98.5	98.3
